Results deposited as PubChem BioAssay AID652243 (Drosophila RNAi Screening Center, 2013).
Test: 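Knock-downs that decrease or increase androgen receptor reporter signal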 (primary screen). Cells: Drosophila S2R+ cells. Reagents: long dsRNA against Drosophila genes. Timing: 72 h (48 h, then 24 h hormone). Conditions: synthetic androgen R1881 at 10 nM for 24 h. Read-out: 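Per-well raw luminescence of the androgen-driven firefly reporter and of the Renilla control, two replicates each, without normalisation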. Scale: firefly reporter light: higher = more light from androgen-responsive reporter; Renilla control light: higher = more constitutive control signal (cell number, transfection). Call rule: 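Across duplicate plates, a knock-down whose log firefly/Renilla ratio shifted a set fold down or up from the GFP/LacZ control mean was a hit; the downward cut appears as both 1.5 and 3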. Meaning of the calls: active = hit: reporter lowered or raised; inactive = no hit.
The screen tested about 24,000 reagents; below is an unselected part of those that have a named target and a result. Of all reagents, 246 (1%) are marked active. 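Plates not normalised; calls are printed but the firefly/Renilla ratio behind them is not deposited; fold cut for lowering reported inconsistently.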 Raw values are not corrected between plates. A number with no mark means an inactive call. The numbers tell different reagents against one gene apart. Reagent sequences are not shown. Not given: the amount of reagent.

Knock-down of ca (claret) #1 gave: firefly reporter light, replicate 1 = 57810; firefly reporter light, replicate 2 = 84963; Renilla control light, replicate 1 = 7.84e5; Renilla control light, replicate 2 = 9.12e5.
For ca (claret) #2 the deposit lists firefly reporter light, replicate 1 = 1.02e5; firefly reporter light, replicate 2 = 1.53e5; Renilla control light, replicate 1 = 1.80e6; Renilla control light, replicate 2 = 1.99e6.
Against ca (claret) #3, the entry reads firefly reporter light, replicate 1 = 1.90e5; firefly reporter light, replicate 2 = 1.91e5; Renilla control light, replicate 1 = 2.84e6; Renilla control light, replicate 2 = 2.95e6.
With knock-down of HHEX (Hematopoietically expressed homeobox) #1, the screen gave firefly reporter light, replicate 1 = 46915 (active); firefly reporter light, replicate 2 = 61316; Renilla control light, replicate 1 = 9.75e5; Renilla control light, replicate 2 = 1.37e6.
For HHEX (Hematopoietically expressed homeobox) #2 the deposit lists firefly reporter light, replicate 1 = 6.90e5; firefly reporter light, replicate 2 = 6.91e5; Renilla control light, replicate 1 = 1.21e6; Renilla control light, replicate 2 = 1.37e6.
Against CG12825 #1, the values are firefly reporter light, replicate 1 = 6.93e5; firefly reporter light, replicate 2 = 8.64e5; Renilla control light, replicate 1 = 2.23e6; Renilla control light, replicate 2 = 2.31e6.
Against CG12825 #2, the entry reads firefly reporter light, replicate 1 = 5.00e5; firefly reporter light, replicate 2 = 3.11e5; Renilla control light, replicate 1 = 9.52e5; Renilla control light, replicate 2 = 6.07e5.
Silencing of CG34183 came out at: firefly reporter light, replicate 1 = 7.26e5; firefly reporter light, replicate 2 = 7.28e5; Renilla control light, replicate 1 = 2.08e6; Renilla control light, replicate 2 = 1.80e6.
Against CG32756 #1 the deposit lists firefly reporter light, replicate 1 = 9.03e5; firefly reporter light, replicate 2 = 8.03e5; Renilla control light, replicate 1 = 6.80e5; Renilla control light, replicate 2 = 5.19e5.
CG32756 #2 scored firefly reporter light, replicate 1 = 6.00e5; firefly reporter light, replicate 2 = 6.60e5; Renilla control light, replicate 1 = 9.91e5; Renilla control light, replicate 2 = 9.72e5.
With knock-down of Sema1b (Semaphorin 1b) #1, the screen gave firefly reporter light, replicate 1 = 6.74e5; firefly reporter light, replicate 2 = 1.20e6; Renilla control light, replicate 1 = 5.61e5; Renilla control light, replicate 2 = 8.13e5.
Against Sema1b (Semaphorin 1b) #2, the entry reads firefly reporter light, replicate 1 = 3.17e5; firefly reporter light, replicate 2 = 2.74e5; Renilla control light, replicate 1 = 8.13e5; Renilla control light, replicate 2 = 9.16e5.
With knock-down of CCT2 (Chaperonin containing TCP1 subunit 2) #1 the results were firefly reporter light, replicate 1 = 96744; firefly reporter light, replicate 2 = 85533; Renilla control light, replicate 1 = 7.02e5; Renilla control light, replicate 2 = 5.87e5.
Depletion of CCT2 (Chaperonin containing TCP1 subunit 2) #2 resulted in: firefly reporter light, replicate 1 = 2.84e5; firefly reporter light, replicate 2 = 3.25e5; Renilla control light, replicate 1 = 6.99e5; Renilla control light, replicate 2 = 9.31e5.
Knock-down of CCT2 (Chaperonin containing TCP1 subunit 2) #3 resulted in: firefly reporter light, replicate 1 = 6.51e5; firefly reporter light, replicate 2 = 9.03e5; Renilla control light, replicate 1 = 2.23e6; Renilla control light, replicate 2 = 2.26e6.
Against Gpdh1 (Glycerol-3-phosphate dehydrogenase 1) #1, the values are firefly reporter light, replicate 1 = 9.64e5; firefly reporter light, replicate 2 = 9.63e5; Renilla control light, replicate 1 = 1.98e6; Renilla control light, replicate 2 = 1.75e6.
Gpdh1 (Glycerol-3-phosphate dehydrogenase 1) #2 showed firefly reporter light, replicate 1 = 5.74e5; firefly reporter light, replicate 2 = 6.38e5; Renilla control light, replicate 1 = 1.93e6; Renilla control light, replicate 2 = 1.74e6.
Silencing of Ca-beta (Ca2+-channel-protein-beta-subunit) #1 resulted in: firefly reporter light, replicate 1 = 1.43e5; firefly reporter light, replicate 2 = 2.08e5; Renilla control light, replicate 1 = 1.11e6; Renilla control light, replicate 2 = 1.25e6.
With knock-down of Ca-beta (Ca2+-channel-protein-beta-subunit) #2, the screen gave firefly reporter light, replicate 1 = 2.76e5; firefly reporter light, replicate 2 = 3.56e5; Renilla control light, replicate 1 = 1.12e6; Renilla control light, replicate 2 = 1.55e6.
Ca-beta (Ca2+-channel-protein-beta-subunit) #3 scored firefly reporter light, replicate 1 = 2.95e5; firefly reporter light, replicate 2 = 2.30e5; Renilla control light, replicate 1 = 2.32e6; Renilla control light, replicate 2 = 2.75e6.
Knock-down of Ca-beta (Ca2+-channel-protein-beta-subunit) #4 gave: firefly reporter light, replicate 1 = 6.16e5; firefly reporter light, replicate 2 = 5.98e5; Renilla control light, replicate 1 = 2.08e6; Renilla control light, replicate 2 = 1.77e6.
Depletion of Ca-beta (Ca2+-channel-protein-beta-subunit) #5 resulted in: firefly reporter light, replicate 1 = 9.66e5; firefly reporter light, replicate 2 = 1.00e6; Renilla control light, replicate 1 = 1.04e6; Renilla control light, replicate 2 = 1.01e6.
With knock-down of Ca-beta (Ca2+-channel-protein-beta-subunit) #6, the record shows firefly reporter light, replicate 1 = 9.27e5; firefly reporter light, replicate 2 = 7.29e5; Renilla control light, replicate 1 = 2.30e6; Renilla control light, replicate 2 = 1.95e6.

2 entries from above, limited to “firefly reporter light, replicate 2”.
CG12825 #2: 3.11e5
CG34183: 7.28e5
